From PubChem BioAssay AID1508600 (Functional Genomics Laboratory (NCATS/FGL), 2020)
Among all 53,000 sequences or so, about 3,700 (7%) were called active.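 The calls were made as follows: active = gene knockdowns whose robust z-score for IL-1 alpha signal is at least 2 or at most -2, so actives lie on both sides; inactive = the rest.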 Some of the results follow.

Assay: Components of the Cytosolic LPS Sensing Pathway: Gene Identification via Genome-wide siRNA Screen;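 also: robust z of the log signal after scaling to non-targeting control siRNA wells of the plate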
Details: RAW264.7 macrophages, IL-1a HTRF, actives lie on both sides, screened at 100 nM (by protocol), cells primed 5 h with Pam3CSK4 first
Summary of the method: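 IL-1a HTRF of supernatants after 24 hour LipidA transfection of Pam3CSK4-primed (5 hours) RAW264.7 cells, 48h post-siRNA transfection (100 nM). Scores: percent of plate negative-control median, then log-based robust z-score.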
In the case of GGUUUUGGACUUGAAUAACTT against Hectd2, the z-score was inactive: -0.121. In the case of GGUUGAUUCUUAAAUUGUGTT against Slc6a5, the z-score was inactive: 0.331. With GGAAGUGUUAUUAACCAAGTT against Rfx6 the z-score was inactive: 0.672. For CCAGGAUUAUAGGUUUUAGTT against Vmn2r66, the z-score was inactive: 0.9. With GGUCGAGAGGUUGAAAGUATT against Arhgap30 the z-score was inactive: 0.455. For CCCACUCAAAUCUAUCAAGTT against Otof, the z-score was inactive: -0.335. In the case of GACUGGAGAACAGCAGUUGTT against Amh, the z-score was inactive: -0.271. For GCUUGAUUAGGUAGGAAUATT against Stk32a, the z-score was inactive: -0.388. In the case of GGAUUGUCAGAAAUCCUGATT against Adat2, the z-score was inactive: -1.22. With GGAGCACAAUAGUAAACUATT against Polr1a the z-score was active: 2.78. With GGUCCAAGCCUUUUCUAGATT against Glmp the z-score was inactive: 0.305. In the case of CCAAAAUGAACAUCAACUCTT against Fam167a, the z-score was inactive: 1.09. For GGUGUUGAUGCUGAAAACUTT against Ogfod2, the z-score was inactive: -0.0895. With GGGUCCUGUUUUUAUAAUATT against Ticam1 the z-score was inactive: -0.154. In the case of AGAAGAGUUACCACUAUGUTT against Phf11d, the z-score was inactive: -0.575. For CCCACCUUUGGUUCAGAACTT against Ctc1, the z-score was inactive: -0.0889. With GCAUUUAGGUCUGAUAAAGTT against Gpr61 the z-score was inactive: 0.00391. For CCCGGAGUGGUCAGAAGUATT against Mapkapk2, the z-score was inactive: -0.376. For CGUGCAAUCCGAUUUGUUGTT against Acaca, the z-score was inactive: 0.993. In the case of GGGCAAAUAUGUUCUCAUUTT against Ndst3, the z-score was inactive: 0.763. With GCCUGUAUGGAUGGAUUCCTT against Ahcyl2 the z-score was inactive: 0.565. With GGAGUUCAUGAUUCUGCCATT against Eno3 the z-score was inactive: -0.0433. With GGAAUUUCAGGAGAUACUGTT against C1qtnf12 the z-score was inactive: -1.04. For GGGUCCUAGAGACUUUGAATT against Txndc5, the z-score was inactive: -0.447. In the case of GGUCCAAGACAGCAACAUGTT against Ccdc151, the z-score was inactive: 0.34. In the case of CGAGUGUUCCUCCAAGUGCTT against Fhl5, the z-score was inactive: 0.384. For GGAGUACCAACCAGAUUUATT against Cdc26, the z-score was inactive: 0.75. For GGCCAGGUAACUCUUACAATT against Trpv1, the z-score was inactive: 1.12. With GGGUCCUCUUUCUCCUGUUTT against Ier3 the z-score was inactive: -0.15. In the case of GGCAAGCUGAAGAUGAACATT against Ntn1, the z-score was inactive: -1.14. In the case of GGAGUUUCAAGAAAAAAGGTT against Map3k21, the z-score was inactive: 1.08. With GGUGGACCAUUCUUUUUCUTT against Zfp57 the z-score was inactive: 0.732. For GGACAUAGUGCACAAAGAGTT against Yif1a, the z-score was inactive: -1.61. With GGAGAAAACCAAACAAUGATT against Gpr156 the z-score was inactive: 0.248. For CCGUUCAAACUACUUGCUGTT against Smad7, the z-score was inactive: 0.86. With GCUAAAGUCGGAAAAUCAATT against Scoc the z-score was inactive: 0.396. In the case of GGCUGAACAGAUAAAUCAGTT against Stoml2, the z-score was inactive: 0.405. For “GGCUAAACUCAAACUCACATT against D630029K05Rik”, the z-score was inactive: 0.85. For CGGUUUAGAUCCCAACACUTT against Pitpnb, the z-score was inactive: -1.93. In the case of GGCACAGGACUUUUAAUUUTT against Emx2, the z-score was inactive: 0.523. For AAAGUCUUUCACUUUCUAUTT against Zfp457, the z-score was inactive: 1.72. In the case of GGAAAUCAAAAUCCUGAAGTT against Ulk1, the z-score was inactive: -0.523. For GGGACCCGGAAACAACACATT against Tyrobp, the z-score was inactive: 0.414. For GGAAAAGAAGCAAAACUUCTT against Tulp2, the z-score was inactive: -1.06. With GCAAAGGAAUCCUUUUCACTT against Clec1a the z-score was inactive: 0.879. In the case of GGUCCUGAGCACAUAGACUTT against Erg28, the z-score was inactive: 0.839. In the case of GGAGCUUAGAGGAACGAAUTT against Cyp2j9, the z-score was inactive: 1.4. With GGAAAAGCAGACUUGCACCTT against Npm2 the z-score was inactive: 0.228. In the case of GCCUCAUUGAAAGGAUCCATT against Mgat5b, the z-score was active: -2.32. In the case of “CCUAAAAGCAAGGCUGCCGTT against D8Ertd738e”, the z-score was inactive: -0.0523. In the case of GGUCAAUUAUGAAGCACCUTT against Pabpc4, the z-score was inactive: 0.158. In the case of GCAACAUUGGAUGUACUCATT against Hdac10, the z-score was active: -2.63. In the case of GCUAAGUUAAGCUUAAUACTT against Rbl1, the z-score was active: 3.33. For GUUCCUCCACAUCCUAGACTT against Smr3a, the z-score was inactive: 0.336. In the case of GGAAGAAGACUCAGAAAGUTT against Prkag2, the z-score was inactive: 1.43. In the case of GCAGAUUGUGCAGCUAGCATT against Pax4, the z-score was inactive: 0.452. In the case of GGCCAUGUGACAUAAAAAATT against Lat, the z-score was inactive: -1.35. With GCAAUCUGUUUAGAGAGAGTT against Slc10a5 the z-score was inactive: -1.16. In the case of GGAGAUCGCGUUCCUUAAGTT against Des, the z-score was inactive: 0.758. In the case of GCAUACGAUGGGAAUUGUATT against Wdr5b, the z-score was inactive: -1.6. In the case of GGGAAAAUUCCAGAAUCGCTT against Musk, the z-score was inactive: 0.315. For GCAUCAACACCUGUUCUAUTT against Olfr376, the z-score was inactive: 1.02. With CGGCGUGUUUAUUUGCUAUTT against Rab27a the z-score was inactive: -1.38. For GCUCAAACACGUGUCGCACTT against Podxl2, the z-score was inactive: 1.12. For GGACAUCUUUGACAUUAUATT against Tubg2, the z-score was inactive: -0.162. In the case of GGCUUAAAGGGUUUUCUGATT against Rnf13, the z-score was inactive: -1.51. For GGUAAAGAUCCAGUGCCGCTT against Tbc1d10c, the z-score was inactive: -1.02. In the case of GCAACUUGACAUAUGACAGTT against Sh3d21, the z-score was inactive: -1.13. With GGUUUGGUGUACUUUUCAUTT against Akr1c6 the z-score was inactive: 1.52. For GGGAACAGGAGAAAACGGATT against Bnipl, the z-score was inactive: 1.2. In the case of GGAAAACAUAAGGCAGUCUTT against Atl2, the z-score was inactive: -0.324. For CCAGCUAUCUCAAAAUGAGTT against Sim1, the z-score was inactive: -0.944. In the case of GGAACAAAGAGUUUAAGGATT against Olfr1415, the z-score was inactive: 0.379. With GCCGUUUAAAACUUGCUAUTT against Trpc6 the z-score was inactive: 1.47. In the case of CCAUAAGUGCCCUCGAGAUTT against Krt39, the z-score was inactive: -1.08. For CAGCUGAGAUUGAUGGCCATT against Olfr313, the z-score was inactive: -0.6. For GGCUUUCGCUGGGCAAAAUTT against Uts2, the z-score was inactive: -0.691. With GGAAGAUUUCUUCAAACGCTT against Lhx4 the z-score was inactive: -0.167. In the case of GGGUCAAAGGAAUAAAACATT against Slc22a5, the z-score was inactive: -0.2. For CCUAUUGUCUGAUAGCCCUTT against Ms4a7, the z-score was inactive: -1.07. For GCUGGAGAUCAUCCUUCAGTT against Rph3al, the z-score was inactive: 0.742. In the case of GGCUGUAUGGGCGAAUAACTT against Plxnd1, the z-score was inactive: -0.00226. With GGAGCUACACACAUAGGAATT against Clec2h the z-score was inactive: 0.891. With GGAAGUUGAGGCUUUGAAGTT against Bnip3l the z-score was inactive: 0.48. For GCUCUUGAAAUUUCACUCUTT against Ide, the z-score was active: 2.1. With GCUUUUACCGUUACGUCUUTT against Uggt1 the z-score was active: 2.18. For GGGAUGUGGAAAGAAUCCATT against Ercc8, the z-score was inactive: -1.13. For GGUACAAGGUCAUCAUGAGTT against Olfr1341, the z-score was active: -2.85. In the case of GCUUACUAAGGUGAUAAUGTT against Il17d, the z-score was inactive: 0.0918. In the case of GGAAGCAAAUGGUUUGUAATT against Srsf2, the z-score was inactive: 1.36. With GGCCUCUGUGGUGUUUAACTT against Omp the z-score was inactive: -0.277. For GCAGGAUUGCGUCCAUAUCTT against Mbd1, the z-score was inactive: -0.157. In the case of GGUAUUACGUCAAAUGCCATT against Sec24a, the z-score was inactive: -1.04. In the case of GGUAAACUCUUGAACAGUATT against Rai1, the z-score was inactive: 0.737. With CUAGAUGCACAGAAUAGCATT against Prm1 the z-score was inactive: -1.83. For GGCUCUGAGAUUCGACUAGTT against P4hb, the z-score was inactive: 0.461. For GGAUGAUAUGGCAUACUUUTT against Fam221a, the z-score was inactive: 0.803. For GGGAUGACUUGGAGUCUCUTT against Csnk1d, the z-score was inactive: -0.0473. With GGAUACAAGCCUUUUAACCTT against Sri the z-score was inactive: -0.0625. With UCACAGUCAUCAUUGUUUCTT against Olfr825 the z-score was active: -2.83. For GGAAAUCAGCUGAAUUACUTT against Dicer1, the z-score was inactive: 1.07. In the case of GCAGAAUUGAAGCUGGAAUTT against Stag1, the z-score was active: 2.49. With GGCCACCAUCAAUUUAUAUTT against Ripply1 the z-score was inactive: -1.87. With GGCUUCAAACAUUUACUGGTT against Aggf1 the z-score was inactive: -0.21. With GGCUAUGUGGGAGAGAAGATT against Mpzl3 the z-score was inactive: -0.941. With CCGAAGGAUUGAAGAGCCUTT against Trnt1 the z-score was inactive: 0.746. For GGCUUAUGUAUGUAAACACTT against Zfp788, the z-score was inactive: 0.468. In the case of GGCGACAGCUAAGUGUUGGTT against Gprc5a, the z-score was inactive: -0.0528.
